Some of the results follow.
These targets were tested with COc1ccc(Cn2ccc3ccc(C(=O)NO)cc32)cc1 (assay: dose-dependent thermal stabilisation call (2D-TPP, DLPTP, 10% FDR) (binary (1 = stabilised)); higher = stabilised by the compound). Details: system: HL-60 intact cells; concentration range 0.04-10 µM.

By UniProt entry, the sequences of proteins in these tests, tags left out. Where a name states a change or a piece, a line headed by the entry shows the natural chain unless it says otherwise.
UniProt P42331: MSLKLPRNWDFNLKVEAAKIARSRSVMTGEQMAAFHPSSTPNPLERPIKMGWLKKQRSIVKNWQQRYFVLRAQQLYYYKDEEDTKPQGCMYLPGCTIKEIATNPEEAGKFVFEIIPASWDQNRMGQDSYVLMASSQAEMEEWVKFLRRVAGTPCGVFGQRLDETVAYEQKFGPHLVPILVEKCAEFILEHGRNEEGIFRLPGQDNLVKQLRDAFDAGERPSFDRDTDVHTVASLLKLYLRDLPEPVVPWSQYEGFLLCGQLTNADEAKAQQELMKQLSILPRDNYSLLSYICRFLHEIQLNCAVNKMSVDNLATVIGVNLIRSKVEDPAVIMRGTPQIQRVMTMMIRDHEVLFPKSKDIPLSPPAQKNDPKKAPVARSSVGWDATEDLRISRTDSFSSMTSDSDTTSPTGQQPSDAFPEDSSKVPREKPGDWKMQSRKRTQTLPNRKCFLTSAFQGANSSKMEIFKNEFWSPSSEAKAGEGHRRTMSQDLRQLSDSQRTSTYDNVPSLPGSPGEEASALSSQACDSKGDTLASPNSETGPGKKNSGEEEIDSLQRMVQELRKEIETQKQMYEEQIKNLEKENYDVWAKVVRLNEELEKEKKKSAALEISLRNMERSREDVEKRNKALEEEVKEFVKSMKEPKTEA
UniProt Q9NWB6: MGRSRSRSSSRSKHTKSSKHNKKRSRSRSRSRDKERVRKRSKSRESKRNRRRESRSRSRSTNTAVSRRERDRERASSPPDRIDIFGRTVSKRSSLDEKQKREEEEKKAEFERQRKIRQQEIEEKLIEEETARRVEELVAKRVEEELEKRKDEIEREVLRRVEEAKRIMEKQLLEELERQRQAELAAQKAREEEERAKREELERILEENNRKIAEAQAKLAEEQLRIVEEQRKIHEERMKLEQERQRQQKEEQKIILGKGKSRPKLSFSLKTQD
UniProt Q2TAA5: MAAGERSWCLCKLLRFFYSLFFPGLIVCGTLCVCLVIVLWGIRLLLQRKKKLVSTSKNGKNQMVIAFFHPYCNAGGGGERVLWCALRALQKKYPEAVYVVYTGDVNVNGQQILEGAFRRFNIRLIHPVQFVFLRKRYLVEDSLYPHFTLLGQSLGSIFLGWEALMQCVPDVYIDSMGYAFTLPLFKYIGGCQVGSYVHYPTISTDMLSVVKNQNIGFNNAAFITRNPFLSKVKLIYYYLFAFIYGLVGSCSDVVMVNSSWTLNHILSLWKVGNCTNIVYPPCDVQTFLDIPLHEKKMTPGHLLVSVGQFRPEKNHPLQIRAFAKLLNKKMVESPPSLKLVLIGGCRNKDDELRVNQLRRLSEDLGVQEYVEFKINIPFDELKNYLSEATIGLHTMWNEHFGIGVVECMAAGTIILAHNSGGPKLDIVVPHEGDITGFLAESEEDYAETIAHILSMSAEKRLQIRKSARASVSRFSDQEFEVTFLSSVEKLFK
UniProt Q96P47: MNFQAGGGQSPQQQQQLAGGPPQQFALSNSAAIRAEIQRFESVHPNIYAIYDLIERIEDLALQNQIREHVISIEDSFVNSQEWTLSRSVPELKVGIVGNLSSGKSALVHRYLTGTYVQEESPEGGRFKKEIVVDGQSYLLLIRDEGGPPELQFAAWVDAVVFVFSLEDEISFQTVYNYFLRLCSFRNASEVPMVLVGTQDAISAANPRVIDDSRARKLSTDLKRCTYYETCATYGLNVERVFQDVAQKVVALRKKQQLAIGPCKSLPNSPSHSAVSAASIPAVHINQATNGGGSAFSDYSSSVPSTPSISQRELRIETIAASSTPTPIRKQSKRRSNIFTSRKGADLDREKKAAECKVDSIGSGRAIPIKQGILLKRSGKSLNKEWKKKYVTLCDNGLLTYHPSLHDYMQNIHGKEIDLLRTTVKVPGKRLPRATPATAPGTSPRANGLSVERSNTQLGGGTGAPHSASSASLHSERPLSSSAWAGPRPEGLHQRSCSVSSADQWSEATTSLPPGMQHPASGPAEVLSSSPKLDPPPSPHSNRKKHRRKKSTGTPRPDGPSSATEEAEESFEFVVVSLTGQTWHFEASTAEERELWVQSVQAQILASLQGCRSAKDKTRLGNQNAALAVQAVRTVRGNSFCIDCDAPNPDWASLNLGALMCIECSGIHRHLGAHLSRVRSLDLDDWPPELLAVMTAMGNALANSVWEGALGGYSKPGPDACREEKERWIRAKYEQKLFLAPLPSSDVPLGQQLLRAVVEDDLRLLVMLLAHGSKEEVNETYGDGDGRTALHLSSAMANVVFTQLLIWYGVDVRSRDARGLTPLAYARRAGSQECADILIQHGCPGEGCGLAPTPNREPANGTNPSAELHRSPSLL
UniProt Q96BJ3: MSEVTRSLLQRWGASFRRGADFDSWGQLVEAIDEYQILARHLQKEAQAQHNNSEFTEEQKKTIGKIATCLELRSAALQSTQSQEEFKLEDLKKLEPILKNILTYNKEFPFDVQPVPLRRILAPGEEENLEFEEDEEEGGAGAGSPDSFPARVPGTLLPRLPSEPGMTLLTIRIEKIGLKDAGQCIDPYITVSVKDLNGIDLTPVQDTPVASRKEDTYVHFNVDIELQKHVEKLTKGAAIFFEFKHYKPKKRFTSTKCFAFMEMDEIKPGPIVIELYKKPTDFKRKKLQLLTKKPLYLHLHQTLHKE
UniProt O60488: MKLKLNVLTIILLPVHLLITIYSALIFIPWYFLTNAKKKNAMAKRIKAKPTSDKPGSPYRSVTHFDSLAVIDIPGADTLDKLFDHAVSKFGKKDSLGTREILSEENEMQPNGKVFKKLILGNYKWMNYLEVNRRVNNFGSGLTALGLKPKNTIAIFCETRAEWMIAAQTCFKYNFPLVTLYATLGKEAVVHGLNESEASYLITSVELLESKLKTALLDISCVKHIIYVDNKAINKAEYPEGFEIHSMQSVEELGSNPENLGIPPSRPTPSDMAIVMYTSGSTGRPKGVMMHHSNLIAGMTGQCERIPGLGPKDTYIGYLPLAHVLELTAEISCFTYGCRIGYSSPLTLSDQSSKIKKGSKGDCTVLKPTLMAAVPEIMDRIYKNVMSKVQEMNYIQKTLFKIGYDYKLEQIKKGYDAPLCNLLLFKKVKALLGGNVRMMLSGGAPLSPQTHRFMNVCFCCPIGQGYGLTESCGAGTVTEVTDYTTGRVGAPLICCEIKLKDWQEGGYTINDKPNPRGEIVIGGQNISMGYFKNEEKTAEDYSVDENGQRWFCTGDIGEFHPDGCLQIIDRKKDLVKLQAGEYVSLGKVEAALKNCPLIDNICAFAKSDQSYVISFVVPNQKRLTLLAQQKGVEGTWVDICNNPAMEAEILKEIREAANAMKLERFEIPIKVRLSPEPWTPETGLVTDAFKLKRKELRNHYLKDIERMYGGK
UniProt Q92888: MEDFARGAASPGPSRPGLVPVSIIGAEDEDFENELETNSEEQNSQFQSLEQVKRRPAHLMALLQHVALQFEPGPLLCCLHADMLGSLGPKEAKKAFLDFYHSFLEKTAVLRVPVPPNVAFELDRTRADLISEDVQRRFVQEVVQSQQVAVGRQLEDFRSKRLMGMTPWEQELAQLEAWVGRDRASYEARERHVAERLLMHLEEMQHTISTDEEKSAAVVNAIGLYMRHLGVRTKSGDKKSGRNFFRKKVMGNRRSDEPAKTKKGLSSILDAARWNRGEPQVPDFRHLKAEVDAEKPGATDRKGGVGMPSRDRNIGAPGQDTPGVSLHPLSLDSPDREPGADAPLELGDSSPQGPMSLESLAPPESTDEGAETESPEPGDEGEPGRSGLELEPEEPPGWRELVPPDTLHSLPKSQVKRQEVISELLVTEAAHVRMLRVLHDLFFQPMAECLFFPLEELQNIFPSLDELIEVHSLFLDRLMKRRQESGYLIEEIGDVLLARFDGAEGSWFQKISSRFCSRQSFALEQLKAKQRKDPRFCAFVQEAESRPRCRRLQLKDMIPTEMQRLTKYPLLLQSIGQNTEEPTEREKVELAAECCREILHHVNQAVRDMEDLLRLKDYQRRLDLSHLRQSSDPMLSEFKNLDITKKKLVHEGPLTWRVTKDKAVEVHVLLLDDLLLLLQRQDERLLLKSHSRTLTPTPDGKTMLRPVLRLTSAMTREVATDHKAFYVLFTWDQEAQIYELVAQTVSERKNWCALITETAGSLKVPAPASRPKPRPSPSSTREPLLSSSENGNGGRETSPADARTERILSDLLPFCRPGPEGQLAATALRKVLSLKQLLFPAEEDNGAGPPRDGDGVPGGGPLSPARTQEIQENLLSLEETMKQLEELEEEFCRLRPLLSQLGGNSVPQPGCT
UniProt P30038: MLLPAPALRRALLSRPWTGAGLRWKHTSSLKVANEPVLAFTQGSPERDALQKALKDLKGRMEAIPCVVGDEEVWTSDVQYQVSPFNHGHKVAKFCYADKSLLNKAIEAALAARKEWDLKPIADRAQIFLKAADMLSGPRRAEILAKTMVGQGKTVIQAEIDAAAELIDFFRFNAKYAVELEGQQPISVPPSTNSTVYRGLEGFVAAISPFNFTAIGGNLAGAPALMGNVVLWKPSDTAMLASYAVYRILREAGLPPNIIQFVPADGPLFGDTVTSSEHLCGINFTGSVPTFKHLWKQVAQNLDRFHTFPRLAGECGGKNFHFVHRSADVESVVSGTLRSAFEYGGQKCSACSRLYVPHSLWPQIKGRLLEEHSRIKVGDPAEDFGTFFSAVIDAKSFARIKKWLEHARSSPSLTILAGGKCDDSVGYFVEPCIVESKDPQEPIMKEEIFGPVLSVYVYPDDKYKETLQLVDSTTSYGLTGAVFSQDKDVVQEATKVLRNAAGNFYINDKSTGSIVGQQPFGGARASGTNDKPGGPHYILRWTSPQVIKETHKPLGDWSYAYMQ
UniProt Q7Z5R6: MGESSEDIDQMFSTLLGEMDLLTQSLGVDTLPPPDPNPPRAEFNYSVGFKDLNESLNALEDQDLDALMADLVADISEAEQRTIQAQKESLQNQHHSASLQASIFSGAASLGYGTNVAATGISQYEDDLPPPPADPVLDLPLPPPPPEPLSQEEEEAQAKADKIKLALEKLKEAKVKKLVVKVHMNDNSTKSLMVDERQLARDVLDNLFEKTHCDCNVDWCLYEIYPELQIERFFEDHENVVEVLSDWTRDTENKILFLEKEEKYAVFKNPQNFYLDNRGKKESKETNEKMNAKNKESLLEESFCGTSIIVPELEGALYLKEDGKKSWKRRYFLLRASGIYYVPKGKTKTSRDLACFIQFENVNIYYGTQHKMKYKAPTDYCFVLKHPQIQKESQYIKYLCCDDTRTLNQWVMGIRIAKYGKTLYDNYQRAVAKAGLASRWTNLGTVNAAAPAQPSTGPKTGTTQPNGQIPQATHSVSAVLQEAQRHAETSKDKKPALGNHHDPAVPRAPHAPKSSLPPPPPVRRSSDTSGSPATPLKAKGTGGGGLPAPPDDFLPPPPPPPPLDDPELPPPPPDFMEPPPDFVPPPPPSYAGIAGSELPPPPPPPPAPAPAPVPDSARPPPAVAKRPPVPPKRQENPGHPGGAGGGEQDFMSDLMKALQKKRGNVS
UniProt Q53FZ2: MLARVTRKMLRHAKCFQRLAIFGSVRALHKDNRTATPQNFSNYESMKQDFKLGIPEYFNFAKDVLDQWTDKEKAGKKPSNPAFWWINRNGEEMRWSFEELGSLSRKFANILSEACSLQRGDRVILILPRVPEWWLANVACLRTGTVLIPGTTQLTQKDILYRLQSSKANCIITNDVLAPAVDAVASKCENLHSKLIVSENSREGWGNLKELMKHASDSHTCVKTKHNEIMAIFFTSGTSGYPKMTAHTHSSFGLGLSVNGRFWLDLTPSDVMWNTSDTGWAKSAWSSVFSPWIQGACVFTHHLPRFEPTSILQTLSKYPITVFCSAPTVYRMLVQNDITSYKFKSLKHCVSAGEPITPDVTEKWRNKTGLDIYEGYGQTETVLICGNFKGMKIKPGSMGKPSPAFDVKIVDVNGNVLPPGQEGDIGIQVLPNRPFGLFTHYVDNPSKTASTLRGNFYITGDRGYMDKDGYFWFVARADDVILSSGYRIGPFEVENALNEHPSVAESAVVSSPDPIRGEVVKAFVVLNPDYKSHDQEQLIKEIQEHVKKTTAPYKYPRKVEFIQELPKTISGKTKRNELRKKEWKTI
UniProt Q53QZ3: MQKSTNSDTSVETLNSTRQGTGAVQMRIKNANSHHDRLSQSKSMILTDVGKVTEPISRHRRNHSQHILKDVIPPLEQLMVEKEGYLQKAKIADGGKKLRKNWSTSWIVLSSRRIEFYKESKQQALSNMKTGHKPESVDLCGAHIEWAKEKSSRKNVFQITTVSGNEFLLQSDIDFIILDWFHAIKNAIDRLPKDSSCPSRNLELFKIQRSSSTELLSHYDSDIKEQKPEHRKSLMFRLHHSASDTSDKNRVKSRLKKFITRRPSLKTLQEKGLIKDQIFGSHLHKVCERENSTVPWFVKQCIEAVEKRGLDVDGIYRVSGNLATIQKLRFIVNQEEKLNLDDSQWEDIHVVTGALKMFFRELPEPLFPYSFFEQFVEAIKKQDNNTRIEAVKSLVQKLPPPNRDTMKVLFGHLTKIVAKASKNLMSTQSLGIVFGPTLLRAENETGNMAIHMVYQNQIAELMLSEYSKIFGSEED

Row | Target | dose-dependent thermal stabilisation call
1 | ARHGAP25 (UniProt P42331) | inactive: 0
2 | ARGLU1 (UniProt Q9NWB6) | inactive: 0
3 | ANXA4 (UniProt P09525) | inactive: 0
4 | ARAF (UniProt P10398) | inactive: 0
5 | APOBEC3B (UniProt Q9UH17) | inactive: 0
6 | ANXA6 (UniProt P08133) | inactive: 0
7 | APP (UniProt P05067) | inactive: 0
8 | ADNP2 (UniProt Q6IQ32) | inactive: 0
9 | ARID3A (UniProt Q99856) | inactive: 0
10 | AKAP8L (UniProt Q9ULX6) | inactive: 0
11 | ARHGAP27 (UniProt Q6ZUM4) | inactive: 0
12 | AKAP2 | inactive: 0
13 | APOL2 (UniProt Q9BQE5) | inactive: 0
14 | ADAP1 (UniProt O75689) | inactive: 0
15 | AGPAT2 (UniProt O15120) | inactive: 0
16 | APAF1 (UniProt O14727) | inactive: 0
17 | ACO1 (UniProt P21399) | inactive: 0
18 | AIF1 (UniProt P55008) | inactive: 0
19 | ALG11 (UniProt Q2TAA5) | inactive: 0

Row | Target | dose-dependent thermal stabilisation call
20 | ADI1 (UniProt Q9BV57) | inactive: 0
21 | AGAP3 (UniProt Q96P47) | inactive: 0
22 | AIDA (UniProt Q96BJ3) | inactive: 0
23 | AP2M1 (UniProt Q96CW1) | inactive: 0
24 | ACSL4 (UniProt O60488) | inactive: 0
25 | ALKBH4 (UniProt Q9NXW9) | inactive: 0
26 | ARHGEF1 (UniProt Q92888) | inactive: 0
27 | ALDH4A1 (UniProt P30038) | inactive: 0
28 | ADH5 (UniProt P11766) | inactive: 0
29 | AP4B1 (UniProt Q9Y6B7) | inactive: 0
30 | ARFGEF2 (UniProt Q9Y6D5) | inactive: 0
31 | ACOT7 (UniProt O00154) | inactive: 0
32 | ADD1 (UniProt P35611) | inactive: 0
33 | APBB1IP (UniProt Q7Z5R6) | inactive: 0
34 | ACSM3 (UniProt Q53FZ2) | inactive: 0
35 | ADNP (UniProt Q9H2P0) | inactive: 0
36 | AHCYL1 (UniProt O43865) | inactive: 0
37 | ARHGAP15 (UniProt Q53QZ3) | inactive: 0
38 | ALS2 (UniProt Q96Q42) | inactive: 0

Looked up above.
dose-dependent thermal stabilisation call, AHCYL1 (UniProt O43865) reads inactive: 0
dose-dependent thermal stabilisation call, AGAP3 (UniProt Q96P47) reads inactive: 0

From the supplement of paper PMC7666118
